{"source": "paper PMC12011184", "about": "(Acta Naturae, 2025)", "key": {"peptide synthesis": {"experiment": "peptide synthesis", "conditions": "whole synthesis, 220 nm"}, "[1]": {"experiment": "Fmoc solid-phase peptide synthesis", "conditions": "whole synthesis, 220 nm"}}, "note": "Some peptides are written in HELM: one residue between dots, names in brackets for other building blocks, links after the first $.", "data": [{"substance": "PEPTIDE1{G.W.T.L.N.S.A.G.Y.L.L.G.P.H.A.I.D.N.H.R.S.F.S.D.K.H.G.L.T.[am]}$$$$V2.0", "values": [{"measurement": "final HPLC purity", "setting": "peptide synthesis", "value": 98.10, "unit": "%"}, {"measurement": "final HPLC purity", "setting": "[1]", "value": 98, "unit": "%"}]}]}
